Data taken from article PMC9445031.
Results are given in words; binding and its absence hold for the method and conditions named. For part of these data: Binding seen in cells or lysates may run through a third protein. Some results given as binding are weak or reduced against the parent protein; the word gives no strength.

By UniProt entry, the sequences of proteins in these tests, tags left out.
UniProt Q14839: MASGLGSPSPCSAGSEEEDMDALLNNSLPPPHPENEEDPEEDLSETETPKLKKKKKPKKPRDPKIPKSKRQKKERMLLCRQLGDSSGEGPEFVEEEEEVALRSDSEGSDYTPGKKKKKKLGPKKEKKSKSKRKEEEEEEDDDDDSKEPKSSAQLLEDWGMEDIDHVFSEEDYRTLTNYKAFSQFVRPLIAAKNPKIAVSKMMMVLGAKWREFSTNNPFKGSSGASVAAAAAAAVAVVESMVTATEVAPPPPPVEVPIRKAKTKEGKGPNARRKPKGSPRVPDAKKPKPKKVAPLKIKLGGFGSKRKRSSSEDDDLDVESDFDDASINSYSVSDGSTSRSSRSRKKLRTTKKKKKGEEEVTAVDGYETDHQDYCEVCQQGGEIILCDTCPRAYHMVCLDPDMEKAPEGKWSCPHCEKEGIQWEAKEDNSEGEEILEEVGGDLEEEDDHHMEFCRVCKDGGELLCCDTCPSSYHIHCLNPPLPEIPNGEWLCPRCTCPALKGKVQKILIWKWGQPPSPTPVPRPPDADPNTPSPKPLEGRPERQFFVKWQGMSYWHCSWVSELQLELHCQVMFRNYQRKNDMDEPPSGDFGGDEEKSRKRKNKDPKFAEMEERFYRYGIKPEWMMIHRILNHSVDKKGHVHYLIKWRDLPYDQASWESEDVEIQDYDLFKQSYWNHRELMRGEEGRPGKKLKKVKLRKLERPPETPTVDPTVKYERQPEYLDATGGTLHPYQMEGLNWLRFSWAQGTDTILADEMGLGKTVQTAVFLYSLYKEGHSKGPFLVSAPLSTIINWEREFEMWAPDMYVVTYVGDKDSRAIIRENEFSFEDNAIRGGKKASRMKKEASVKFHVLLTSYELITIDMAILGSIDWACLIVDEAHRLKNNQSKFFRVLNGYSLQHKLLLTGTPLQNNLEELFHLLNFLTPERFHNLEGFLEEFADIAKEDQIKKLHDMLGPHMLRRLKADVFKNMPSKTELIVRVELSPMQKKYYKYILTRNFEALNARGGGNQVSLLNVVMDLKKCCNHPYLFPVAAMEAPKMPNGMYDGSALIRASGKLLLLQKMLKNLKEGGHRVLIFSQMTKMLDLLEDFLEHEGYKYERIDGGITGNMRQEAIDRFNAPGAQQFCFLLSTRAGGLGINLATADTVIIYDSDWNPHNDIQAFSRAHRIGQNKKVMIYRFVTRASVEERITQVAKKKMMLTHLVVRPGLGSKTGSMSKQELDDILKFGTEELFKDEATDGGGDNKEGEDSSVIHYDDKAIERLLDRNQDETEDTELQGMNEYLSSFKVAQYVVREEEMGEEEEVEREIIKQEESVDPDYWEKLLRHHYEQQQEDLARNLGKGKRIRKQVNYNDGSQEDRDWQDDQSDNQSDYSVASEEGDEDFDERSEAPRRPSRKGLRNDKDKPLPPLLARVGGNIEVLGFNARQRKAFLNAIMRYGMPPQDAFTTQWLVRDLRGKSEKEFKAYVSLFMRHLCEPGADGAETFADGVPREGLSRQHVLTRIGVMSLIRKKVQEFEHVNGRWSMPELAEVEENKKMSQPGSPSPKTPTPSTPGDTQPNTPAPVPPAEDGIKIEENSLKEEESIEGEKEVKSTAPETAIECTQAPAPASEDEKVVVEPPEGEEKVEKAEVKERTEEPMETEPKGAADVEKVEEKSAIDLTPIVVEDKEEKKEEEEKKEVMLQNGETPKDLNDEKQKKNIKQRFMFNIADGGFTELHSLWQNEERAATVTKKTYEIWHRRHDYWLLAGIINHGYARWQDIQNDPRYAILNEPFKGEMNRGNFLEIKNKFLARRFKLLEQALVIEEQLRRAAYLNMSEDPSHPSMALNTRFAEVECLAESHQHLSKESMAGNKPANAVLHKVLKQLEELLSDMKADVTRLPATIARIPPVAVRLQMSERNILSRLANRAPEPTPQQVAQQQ
UniProt Q13547: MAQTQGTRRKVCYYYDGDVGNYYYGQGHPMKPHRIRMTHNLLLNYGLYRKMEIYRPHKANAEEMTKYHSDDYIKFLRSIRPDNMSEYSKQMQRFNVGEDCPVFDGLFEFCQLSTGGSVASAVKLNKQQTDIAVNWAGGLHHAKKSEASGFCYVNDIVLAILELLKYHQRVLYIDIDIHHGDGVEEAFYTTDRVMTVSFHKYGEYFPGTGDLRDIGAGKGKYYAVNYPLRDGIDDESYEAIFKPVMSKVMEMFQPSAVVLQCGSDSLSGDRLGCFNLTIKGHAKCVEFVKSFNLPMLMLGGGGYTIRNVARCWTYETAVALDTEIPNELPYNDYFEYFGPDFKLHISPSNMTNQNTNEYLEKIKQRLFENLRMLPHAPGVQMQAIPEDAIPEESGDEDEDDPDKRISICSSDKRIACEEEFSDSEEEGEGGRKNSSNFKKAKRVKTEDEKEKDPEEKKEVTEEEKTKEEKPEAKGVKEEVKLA

Experiments:
[1] = biological target: T1, Zinc Finger MYND (Myeloid, Nervy, and DEAF-1) type containing 8 (human (in lysate of the paper's cell lines, all human; line not stated)) (UniProt Q9ULU4); experiment: Re-ChIP; sequential chromatin immunoprecipitation of cross-linked chromatin: first antibody, elution with 0.05 M DTT at 30 °C for 1 h, 20-fold dilution, second antibody; qPCR at the MAPT IGRR site
T1 sequence: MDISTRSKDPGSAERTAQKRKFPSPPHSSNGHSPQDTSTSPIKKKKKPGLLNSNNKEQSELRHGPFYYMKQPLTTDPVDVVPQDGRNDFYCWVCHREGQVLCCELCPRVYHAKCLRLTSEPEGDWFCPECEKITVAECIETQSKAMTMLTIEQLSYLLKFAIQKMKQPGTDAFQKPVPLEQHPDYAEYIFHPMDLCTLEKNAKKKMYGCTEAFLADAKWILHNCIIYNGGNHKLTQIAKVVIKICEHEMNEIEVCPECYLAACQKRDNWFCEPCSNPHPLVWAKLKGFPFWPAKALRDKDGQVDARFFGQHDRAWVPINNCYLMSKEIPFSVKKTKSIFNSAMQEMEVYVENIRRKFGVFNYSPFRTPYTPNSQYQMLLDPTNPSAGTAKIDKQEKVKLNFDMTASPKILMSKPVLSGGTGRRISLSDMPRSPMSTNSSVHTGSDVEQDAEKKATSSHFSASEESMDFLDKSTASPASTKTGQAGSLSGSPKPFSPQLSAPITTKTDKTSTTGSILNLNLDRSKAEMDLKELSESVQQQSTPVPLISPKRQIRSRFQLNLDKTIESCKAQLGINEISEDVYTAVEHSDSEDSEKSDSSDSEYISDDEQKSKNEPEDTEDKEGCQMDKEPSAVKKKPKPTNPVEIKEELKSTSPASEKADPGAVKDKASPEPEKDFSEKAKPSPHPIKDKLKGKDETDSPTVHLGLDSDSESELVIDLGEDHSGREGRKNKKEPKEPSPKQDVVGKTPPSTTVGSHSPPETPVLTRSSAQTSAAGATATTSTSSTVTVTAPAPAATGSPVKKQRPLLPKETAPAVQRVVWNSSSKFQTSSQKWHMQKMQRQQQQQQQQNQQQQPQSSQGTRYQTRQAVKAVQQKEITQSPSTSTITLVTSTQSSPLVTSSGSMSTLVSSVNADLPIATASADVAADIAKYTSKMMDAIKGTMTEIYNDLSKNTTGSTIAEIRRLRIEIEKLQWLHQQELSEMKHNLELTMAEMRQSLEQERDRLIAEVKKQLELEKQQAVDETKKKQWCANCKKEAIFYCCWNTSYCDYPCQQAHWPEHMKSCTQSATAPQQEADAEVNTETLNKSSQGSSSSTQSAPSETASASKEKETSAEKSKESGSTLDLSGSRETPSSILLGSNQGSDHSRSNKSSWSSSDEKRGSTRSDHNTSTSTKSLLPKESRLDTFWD

[2] = biological target: T1, Zinc Finger MYND (Myeloid, Nervy, and DEAF-1) type containing 8 (human (in lysate of the paper's cell lines, all human; line not stated)); experiment: co-IP; cells cross-linked with 1% formaldehyde, neutralised with 125 mM glycine, lysed in RIPA buffer and sonicated; immunoprecipitation with the respective antibodies overnight, Dynabeads, western blot; in the presence of ATRA (CHD4, HDAC1)

Substance	binding [1]	binding [2]
CHD4 (from UniProt Q14839 1-1912)	binds	binds
HDAC1 (from UniProt Q13547 1-482)		binds
